{"source": "PubChem BioAssay AID1508600", "about": "(Functional Genomics Laboratory (NCATS/FGL), 2020)", "note": "The whole screen tested about 53,000 sequences, of which about 3,700 (7%) were called active.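 How the source made its calls: active means gene knockdowns whose robust z-score for IL-1 alpha signal is at least 2 or at most -2, so actives lie on both sides; inactive means the rest.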 The list shows a part of the results.", "data": [{"test": "Components of the Cytosolic LPS Sensing Pathway: Gene Identification via Genome-wide siRNA Screen;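 further: robust z of the log signal after scaling to non-targeting control siRNA wells of the plate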", "settings": "RAW264.7 macrophages, IL-1a HTRF, actives lie on both sides, screened at 100 nM (by protocol), cells primed 5 h with Pam3CSK4 first", "outline": "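Mouse macrophage line RAW264.7 is transfected with siRNA (100 nM final), grown 48h, primed with TLR ligand Pam3CSK4 5 h and given intracellular LipidA 24 h. IL-1a in supernatant is read by HTRF and viability by luminescence.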", "values": [{"sequence": "GGGAAAGAUCCAGAACCAGTT against Rsrp1", "z-score": "inactive: 0.255"}, {"sequence": "GCUGAUUUAUAACAGGCGUTT against Xkr8", "z-score": "inactive: 0.608"}, {"sequence": "GCUCUAUCGAAUCAUAUUATT against Intu", "z-score": "inactive: -1.47"}, {"sequence": "GCGAUAUUGACUGUGUAUATT against Ypel5", "z-score": "inactive: 0.256"}, {"sequence": "CGCUUUCUAUACCAGAAGUTT against Lbx1", "z-score": "inactive: 0.0879"}, {"sequence": "GGAAAAAGUUCCAAAAGAATT against Kif21b", "z-score": "inactive: -1.01"}, {"sequence": "GCAAUGGACACUGUAUCAATT against Gab2", "z-score": "inactive: 0.0379"}, {"sequence": "GGGACUGCUAGUAAAGUUCTT against Cabin1", "z-score": "inactive: 1.06"}, {"sequence": "GGUCACCAUAGAUCGGCAATT against Slamf7", "z-score": "inactive: 0.093"}, {"sequence": "CGAGAGCGAGUGAAAGAAGTT against Eif4enif1", "z-score": "inactive: -1.26"}, {"sequence": "GCAUUCGUUCGGCACGUGUTT against Bcl2l14", "z-score": "inactive: -0.0672"}, {"sequence": "GGUGGUUUUGAGAAUUAACTT against H1f3", "z-score": "inactive: -0.206"}, {"sequence": "CGCAAGAUACCAACACUUATT against Flad1", "z-score": "inactive: -0.487"}, {"sequence": "CCUAGCACUAGCCUCCUUATT against Tbx2", "z-score": "inactive: 1.1"}, {"sequence": "GCAUGAUUAGGUUUCAGCATT against 2310057M21Rik", "z-score": "inactive: -1.31"}, {"sequence": "GGAUGGACCAUCAGCUUCATT against Olfr1152", "z-score": "active: -2.25"}, {"sequence": "GGAAGAAGAAUAAGGCUUUTT against Tmem189", "z-score": "inactive: 0.904"}, {"sequence": "GGAGAUGAUGCUCUUCCUGTT against Cflar", "z-score": "inactive: 0.239"}, {"sequence": "GGUCGGGAUUUAAUUUGUATT against Bbs9", "z-score": "inactive: 0.978"}, {"sequence": "GGCCCUUGUAAGAGUCCUUTT against Olfr381", "z-score": "inactive: 0.698"}, {"sequence": "GGAAAUAUAUCUGAAAGGGTT against Sphkap", "z-score": "inactive: 0.514"}, {"sequence": "AUCUCAGCGUAGAACGAAUTT against Gm5617", "z-score": "inactive: -0.309"}, {"sequence": "GCUGAUAAACCACUUGUGATT against Olfr1287", "z-score": "inactive: -0.804"}, {"sequence": "GGAAAUCGAGCAUGUCUUCTT against Stk32c", "z-score": "active: 2.21"}, {"sequence": "GGAGCUGAUGUAGCCUUCATT against Yif1a", "z-score": "inactive: -1.97"}, {"sequence": "GGACAAUAGUGUGCUACCATT against Mrpl42", "z-score": "inactive: 0.704"}, {"sequence": "GGUAGUCAAGUCGAAAGUATT against Ccdc18", "z-score": "active: -2.19"}, {"sequence": "GCAUGAACUUACCCUAUUATT against Vmn1r197", "z-score": "inactive: -1.25"}, {"sequence": "GCAGAGCAAAGACCUGACUTT against Ccdc157", "z-score": "inactive: 0.221"}, {"sequence": "GGUUCUGCCCUAUUUGUCATT against Tle5", "z-score": "inactive: -0.606"}, {"sequence": "GGGCAACUACGAGUCUCUCTT against Zfp398", "z-score": "inactive: 0.273"}, {"sequence": "CGUGUUGGAGUACAAUGAGTT against Imp3", "z-score": "inactive: -0.927"}, {"sequence": "GGAAGUCAACAAUGCAUUCTT against Olfr1451", "z-score": "inactive: -0.133"}, {"sequence": "GGGCUCCUUUUUUUUUUUUTT against Frat1", "z-score": "active: -2.55"}, {"sequence": "CCUGAUCGACUUCAACUUGTT against Tmem39b", "z-score": "inactive: 0.0949"}, {"sequence": "GCAAUCAAAAGAUUGUCACTT against Gmeb1", "z-score": "inactive: 0.17"}, {"sequence": "CCAGACAUGAAACUUGUAUTT against Mms19", "z-score": "inactive: -0.165"}, {"sequence": "GCCCAACCUGUCCAUACUUTT against Guca2b", "z-score": "inactive: -0.193"}, {"sequence": "GGAAGAAAUGGAAAUGGAUTT against Nek9", "z-score": "inactive: 0.837"}, {"sequence": "GGUGUCAUCACAAAAAGAATT against Epha1", "z-score": "inactive: 1.21"}, {"sequence": "GGACUGAGGGCAAUGAAAATT against Chst15", "z-score": "inactive: 0.523"}, {"sequence": "GCCCUGGAAGAAUUAUGUGTT against Nat8", "z-score": "inactive: -0.0773"}, {"sequence": "GCAGUUUUGGUGCAUGGGATT against Coq6", "z-score": "inactive: -0.424"}, {"sequence": "CCGCGUACACCAACACUCATT against Hoxa2", "z-score": "inactive: 0.323"}, {"sequence": "GCUGAAGACCGACUACAAGTT against Cnih1", "z-score": "inactive: 0.569"}, {"sequence": "GGAGAUCGAUAUUCGACUATT against 4933434E20Rik", "z-score": "active: -2.48"}, {"sequence": "GCCGUCAAAAAUAUGCUGATT against Stim1", "z-score": "inactive: -0.0018"}, {"sequence": "GGCACACAGUUUUGUACAUTT against Nfat5", "z-score": "active: 2.25"}, {"sequence": "GCCAAACACUCGACUCUAATT against Gm11733", "z-score": "inactive: -0.823"}, {"sequence": "CGGUAUUUGUCUGUAUCCUTT against Npc2", "z-score": "inactive: -1.71"}, {"sequence": "GCACCCUAAUGUGAUCGCATT against Cdk19", "z-score": "inactive: -1.34"}, {"sequence": "GGUGAUAGUCCACGAGGUUTT against Esyt1", "z-score": "inactive: 0.889"}, {"sequence": "GGCUCAGUCCCAUCAGCAUTT against Gdf7", "z-score": "inactive: 0.524"}, {"sequence": "GGAAGGAACUUUUUGAGUATT against Trim61", "z-score": "inactive: -0.467"}, {"sequence": "GGCACAGACCUCACAGUUATT against Olfr64", "z-score": "inactive: 0.534"}, {"sequence": "CCCAAAUACCUACCAUCUCTT against Slc4a9", "z-score": "inactive: -0.44"}, {"sequence": "CCACAUCUGAACAUUAGUCTT against Phxr1", "z-score": "inactive: -0.55"}, {"sequence": "GGUCACCUUUGCACAGUACTT against Atpsckmt", "z-score": "inactive: -0.758"}, {"sequence": "GGUUUUUGUGGAGACACUGTT against Ap3s2", "z-score": "inactive: -1.41"}, {"sequence": "GGUUGAUAACAGGAAGUUUTT against Spred2", "z-score": "inactive: 0.651"}, {"sequence": "GGAAGGUUGCUGAAGAACGTT against Zfp647", "z-score": "inactive: 0.592"}, {"sequence": "GCUCUACCCUGAAGAUAUATT against Immt", "z-score": "active: 2.44"}, {"sequence": "GGACAUGGAACUGGAUGAATT against Ciita", "z-score": "active: -2.49"}, {"sequence": "GCCACGGCCAGUAAAACAUTT against Cdcp1", "z-score": "inactive: 0.335"}, {"sequence": "GGGUGAGACUUUUAUUAUUTT against Epdr1", "z-score": "inactive: -0.468"}, {"sequence": "GGAACGAUGGAUACUUGGGTT against Porcn", "z-score": "inactive: 1.06"}, {"sequence": "GGUCUGAAAAUGGAAUACCTT against Vps13a", "z-score": "inactive: 1.8"}, {"sequence": "GGCAGAUGUAACCAUAUCATT against Nfe2", "z-score": "inactive: -1.09"}, {"sequence": "CCUCUGCGUAGUUUCCUUGTT against Olfr345", "z-score": "inactive: 0.533"}, {"sequence": "GGCAGAAGCACUGUGGACUTT against Agr2", "z-score": "inactive: -1.25"}, {"sequence": "GGACAGGAAGAUGUGGCUUTT against Ly6d", "z-score": "inactive: -0.429"}, {"sequence": "GCCAAGUUUCUUUUAGAGATT against Hmgcr", "z-score": "inactive: -0.502"}, {"sequence": "GGUUAAAGACCAUGUUUAUTT against Moxd1", "z-score": "inactive: -1.09"}, {"sequence": "CGUAGUUUUACAGAUCACUTT against Tenm3", "z-score": "inactive: -1.58"}, {"sequence": "GCUUAGAUAUUUCUUAUGCTT against Cenpl", "z-score": "inactive: 0.472"}, {"sequence": "GCUACUUUUUAGUGGUUGUTT against Olfr1298", "z-score": "inactive: -0.781"}, {"sequence": "GAAAAAUGUGCAAGAGACUTT against Olfr1218", "z-score": "inactive: -1.29"}, {"sequence": "GGCCUUGAAGGAGUAUGAGTT against Atp2a3", "z-score": "active: -2.62"}, {"sequence": "CGGAUUGGCCAACAACGCATT against Slc24a3", "z-score": "inactive: -0.42"}, {"sequence": "GGAAGAUGAUGAGAUAAACTT against Herpud1", "z-score": "inactive: -1.31"}, {"sequence": "GGGCGAGAUUACCAUCUUGTT against Relt", "z-score": "inactive: -0.471"}, {"sequence": "GAGCCAGAAGAUAACCAAGTT against Dpm2", "z-score": "inactive: -1.61"}, {"sequence": "GACUCUCCUGCUUUUACCUTT against Nat8f4", "z-score": "inactive: -1.13"}, {"sequence": "GGUGAUGGAAUACCAAAGGTT against Dnajc28", "z-score": "inactive: -0.736"}, {"sequence": "CCCAACUCGGUUUUUUUCUTT against Olfr1037", "z-score": "inactive: 0.827"}, {"sequence": "GCUACGGAUGCUUUUCAAATT against Ube2i", "z-score": "inactive: -0.351"}, {"sequence": "GGACACCUGAUUUUCUUCUTT against Slc41a3", "z-score": "inactive: -0.364"}, {"sequence": "GGAAAAUACAGCUUUGUAATT against Esyt2", "z-score": "inactive: -0.0753"}, {"sequence": "GGGAUUAUAGGGCGCAUUGTT against Olfr685", "z-score": "inactive: -1.01"}, {"sequence": "GGCGGUCUUUAUUUAGACATT against Dusp12", "z-score": "inactive: 1.32"}, {"sequence": "GGAAAUGGGAAGUUUAAUCTT against Cdo1", "z-score": "inactive: 1.62"}, {"sequence": "GGUGUACAGUCUGUUCCGATT against Ltbp2", "z-score": "inactive: 1.41"}, {"sequence": "GCUUUUGAUAUUCCACGUUTT against Pole2", "z-score": "inactive: 0.273"}, {"sequence": "CCGAAUGUUCCAUGUUUGUTT against Lrrc8d", "z-score": "inactive: 1.86"}, {"sequence": "GGCAGAGAAGGAGGCUAAGTT against Tcf7", "z-score": "inactive: -0.197"}, {"sequence": "GGAGAAGACUAUAAGCUUATT against Rxylt1", "z-score": "inactive: 1.21"}, {"sequence": "CCGAUUAGAAAAGACCAAATT against Ccdc25", "z-score": "inactive: 0.727"}, {"sequence": "GCUUUGAGACUAGAUGUGGTT against Kirrel3os", "z-score": "inactive: -0.745"}, {"sequence": "CGAUUACACUAGCAAGAAATT against Bche", "z-score": "inactive: -0.0718"}, {"sequence": "GCUGGACCACUGCAAUAUUTT against Gsk3a", "z-score": "inactive: -1.08"}, {"sequence": "GGCAGCUUCAGGAACCAAUTT against Krt5", "z-score": "active: -2"}, {"sequence": "GGGACAUUUCAGAUUGUAUTT against Thumpd1", "z-score": "inactive: -1.31"}, {"sequence": "GCAAAACAUGAGCUUAAACTT against Spcs1", "z-score": "inactive: -0.241"}, {"sequence": "GCAGCAGCAAAUGUUCUAUTT against Olfr384", "z-score": "inactive: 0.763"}, {"sequence": "GGAGUAUGGAACAAGCCAGTT against Plxnb3", "z-score": "inactive: -0.372"}, {"sequence": "CCUUGACCUUAAUGUCUUCTT against Fgf23", "z-score": "active: 2.05"}, {"sequence": "GGGAGAUCACCACCAUCCUTT against Bsx", "z-score": "inactive: -1.79"}]}]}
